Library screen at single concentrations

Data taken from ChEMBL document CHEMBL3988442, “University of Dundee, Small-Polar-MMV Screening Library” (2021).

Results are given as percent effect.
How 0% and 100% were set is not recorded. Most values in the screen are low, and negative values occur.
The compounds are a random part of those screened.
Two or more numbers in one place are separate tests of the same structure; such repeats can differ widely.

A: 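Phenotypic screen: M. tuberculosis growth, cholesterol and DPPC medium, 4 days; the read-out is not stated. Compounds at 50 µM. The record gives no direction; compounds that gave an IC50 in retests scored well above the rest, so higher reads as more growth inhibition. Of about 69,000 compounds tested this way, about 370 (0.54%) reached 50% or more in at least one test.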
B: 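Phenotypic screen: M. tuberculosis growth, glucose 7H9 medium, 3 days; the read-out is not stated. Tested at 50 µM. Higher reads as more growth inhibition (inferred: compounds with an IC50 in retests scored well above the rest). Size under these conditions: about 69,000 compounds, about 760 of them at 50% or above in at least one test.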

| SMILES | A | B |
|---|---|---|
| `CCOCC1CN(S(=O)(=O)C2CC2)Cc2cnn(C)c21` (centres unmarked) | -4.233 | -12.89 |
| `COc1ccccc1OC1CN(C(=O)c2c(C)nc3ccc(C)cn23)C1` | 35.82 | 57.77 |
| `COc1cccc2c1CCC2NC(=O)NCc1csc(N(C)C)n1` (centres unmarked) | -18.2 | -6.471 |
| `COc1cc2c(nn1)CCN(Cc1nc(Cc3ccccc3)no1)C2` | 20.79 | 17.89 & 13.54 |
| `COC(=O)CCCC(=O)N(C)CC1Cc2ccccc2CN1C` (centres unmarked) | 0.7415 | 3.054 |
| `Cc1nc(CN(Cc2cccnc2)Cc2ccsc2)c[nH]1` | 2.408 | 0.6015 |
| `COC(=O)C(C)Sc1nnnn1C1CCOCC1` (centres unmarked) | 4.89 | -30.53 |
| `CSc1cccc(CNC(=O)C2CC(=O)N(CCN(C)C)C2)c1` (centres unmarked) | -27.49 | -4.953 |
| `CCN(c1ccsc1C(=O)N1CCSCC1)S(=O)(=O)c1ccc(Cl)cc1` | 3.324 | -2.1 |
| `COC(=O)CN(Cc1ccccc1C)C(=O)CCNC(=O)C(C)(C)C` | 8.641 | 19.33 |
| `CN1CCCN(C(=O)c2cnc(Cc3c(Cl)cccc3Cl)nc2O)CC1` | 4.81 | 22.22 |
| `Cc1cnn(CCNCc2nnc(-c3occc3C)o2)c1` | -25.34 | -5.954 |
| `Fc1ccc(CN2CCC3(CCCN(c4nncs4)C3)C2)cc1.O=C(O)C(F)(F)F` (centres unmarked) | -9.381 & -13.74 | -5.155 & -8.466 |
| `N#Cc1ccc(N2CCCC3(CCN(c4cncnc4)C3=O)C2)nc1.O=C(O)C(F)(F)F` (centres unmarked) | -6.983 | 2.835 |
| `COc1cccc(N2CCC(N3CCOC(C(F)(F)F)C3)CC2)c1` (centres unmarked) | -3.415 | 15.92 |
| `CCCC(NC(=O)c1cc(C)ccc1C)c1nnn[nH]1` (centres unmarked) | -8.11 | -7.998 |
| `Cc1cc(N(C)C)nc(C2CCNC2)n1.Cl.Cl` (centres unmarked) | -13.9 | -42.08 |
| `O[C@H]1[C@H](n2cc(-c3cncnc3)nn2)c2ccccc2C12CCNCC2` | -30.34 | -26.43 |
| `CN(C)[C@@H]1CCN(C(=O)Cc2cccs2)[C@H]1Cc1ccncc1.O=C(O)C(F)(F)F.O=C(O)C(F)(F)F` | -7.008 & -9.477 | -14.11 |
| `O=C(Cc1n[nH]c2ccccc12)N1CCCC1Cn1cccn1` (centres unmarked) | 0.988 | 34.15 |
| `N#Cc1cccc(C(=O)NC2CCc3c(ccc(=O)n3CC3CC3)C2)c1` (centres unmarked) | -24.4 | 5.74 |
| `CCOC(=O)c1ccc(CNC(=O)c2ccc(C)nc2)o1` | -18.62 | 11.15 |
| `O=C(NCc1cccnc1)c1nc2c(s1)CCCN2c1ncccn1` | -34.27 | -8.982 & -5.74 |
| `CN(Cc1ccco1)C(=O)NCc1ccnc(SC(C)(C)C)c1` | -1.485 | -6.814 |
| `CN(Cc1nc2ccccc2[nH]1)C(=O)C(C)(C)n1cc(Cl)cn1` | -15.96 | -15.77 & 4.084 |
| `O=C(CC1CCN(c2cccnn2)CC1)NCCO` | 5.315 | 6.749 |
| `COC(=O)c1cccc(CN(C)Cc2ncnn2C)c1C#N` | 18.1 | 17.09 |
| `CC(=O)N[C@@H]1CN(Cc2nnc(-c3ccccc3)o2)C[C@H]1C(C)C` | -1.93 | -1.062 |
| `[H][C@@]12CNC(=O)N1CCN(Cc1nccs1)C2` | -2.287 | -5.755 & -7.363 |
| `COc1ccc(C(=O)Nc2ccc3c(c2)C(=O)NC3)cc1Br` | -11.16 | -14.47 |
| `O=C(O)C(F)(F)F.O=S(=O)(c1ccccc1)N1CCC2(CCCN2Cc2cccc(Cl)c2)C1` (centres unmarked) | 1.372 | 30.78 & 9.42 |
| `O=C(CCc1ccccc1)C1CCCN(C(=O)c2cncc(Cl)c2)C1` (centres unmarked) | 15.42 | 28.17 |
| `Cc1nn(C)c(C)c1C1CCCN1C(=O)c1ccc(N(C)C)nn1` (centres unmarked) | 6.856 | 4.675 |
| `Cc1oc(-c2ccc(Cl)cc2)nc1C(=O)NC1=NCCS1` | 17.42 | 42.14 & 40.33 |
| `[H][C@@]12CN(Cc3cccc(C)n3)C[C@]1([H])OCCN2C` | 19.04 | 15.48 & 1.04 |
| `O=C(N1CCCC1)N1CCC[C@]2(C[C@@H](OCc3ccncc3)CO2)C1.O=C(O)C(F)(F)F` | -1.214 | -3.072 & -13.59 |
| `CS(=O)(=O)CCCSCc1cc(F)cc(Br)c1` | -0.5245 | -5.266 |
| `Cc1ccc(NCc2cncc3c2CCN(Cc2ccccn2)C3)nn1.Cl.Cl` | -6.947 & -0.7823 | -28.19 |
| `C/C(=C\c1ccccc1)CN1CCCC(c2nnc3n2CCNCC3)C1.Cl` (centres unmarked) | -20.63 | -5.747 |
| `CN1CCCC(CCC(=O)N2CCc3sc(C(=O)N(C)C)cc3C2)C1` (centres unmarked) | -16.27 | -46.34 |

For reference, 3 entries once more:

Cc1nn(C)c(C)c1C1CCCN1C(=O)c1ccc(N(C)C)nn1 (centres unmarked) gave A: 6.856%; B: 4.675%.
N#Cc1ccc(N2CCCC3(CCN(c4cncnc4)C3=O)C2)nc1.O=C(O)C(F)(F)F (centres unmarked) gave A: -6.983%; B: 2.835%.
O=C(CC1CCN(c2cccnn2)CC1)NCCO gave A: 5.315%; B: 6.749%.